In this experiment the target is SAMHD1-HA (human SAMHD1, wild type, from pVR1012-SAMHD1-HA) (human), Q9Y3Z3. Description: affinity purification with mass spectrometry; HEK293T cells transfected with pSAMHD1-HA or empty vector were lysed together with PMA-treated U937 cells; IP with anti-HA affinity matrix; SDS-PAGE, trypsin digestion, Orbitrap MS. Particulars: remark: other sources report otherwise.

These are yes or no findings as the source states them, for the method shown. In cells and extracts the contact can be indirect. These calls come from enrichment with a bait or labelling near it, and not all partners need be listed.

B1: endogenous MX2 (myxovirus resistance protein 2) of PMA-differentiated U937 cells, P20592 1-715 (protein)
chain: MSKAHKPWPYRRRSQFSSRKYLKKEMNSFQQQPPPFGTVPPQMMFPPNWQGAEKDAAFLAKDFNFLTLNNQPPPGNRSQPRAMGPENNLYSQYEQKVRPCIDLIDSLRALGVEQDLALPAIAVIGDQSSGKSSVLEALSGVALPRGSGIVTRCPLVLKLKKQPCEAWAGRISYRNTELELQDPGQVEKEIHKAQNVMAGNGRGISHELISLEITSPEVPDLTIIDLPGITRVAVDNQPRDIGLQIKALIKKYIQRQQTINLVVVPCNVDIATTEALSMAHEVDPEGDRTIGILTKPDLMDRGTEKSVMNVVRNLTYPLKKGYMIVKCRGQQEITNRLSLAEATKKEITFFQTHPYFRVLLEEGSATVPRLAERLTTELIMHIQKSLPLLEGQIRESHQKATEELRRCGADIPSQEADKMFFLIEKIKMFNQDIEKLVEGEEVVRENETRLYNKIREDFKNWVGILATNTQKVKNIIHEEVEKYEKQYRGKELLGFVNYKTFEIIVHQYIQQLVEPALSMLQKAMEIIQQAFINVAKKHFGEFFNLNQTVQSTIEDIKVKHTAKAENMIQLQFRMEQMVFCQDQIYSVVLKKVREEIFNPLGTPSQNMKLNSHFPSNESSVSSFTEIGIHLNAYFLETSKRLANQIPFIIQYFMLRENGDSLQKAMMQILQEKNRYSWLLQEQSETATKRRILKERIYRLTQARHALCQFSSKEIH
On to B1, for which the binding entry is given as “binds”.

Source of the values: paper PMC11253599.
